The list shows a part of the results. The main result of the screen is listed elsewhere. These columns were measured beside it and carry no call. Compounds called inactive in the main read-out are mostly missing here. Words in brackets tell the shape of the fitted curve; partial curves, single points and poor fits give uncertain potencies.
Assay: qHTS Assay to Find Inhibitors of Chronic Active B-Cell Receptor Signaling
Conditions: ABC-DLBCL IkBa-CBG/CBR reporter, luminescence ratio (green luciferase fused to IkBa over red control in TMD8 lymphoma cells), 4 h
How it was run: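 TMD8 human ABC-DLBCL cells with doxycycline-inducible IκBα–green luciferase fusion and unfused red luciferase, in 0.5% FBS medium; compounds up to 46 uM, 4 h at 37C. Green/red luminescence ratio, filter-overlap corrected, fitted to concentration-response curves.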

[1] = measured here: CBR red luminescence, cell number
[2] = measured here: IkBa-CBG green luminescence

For CCN(CC)CCOC(=O)c1ccc(N/C=C(/C#N)c2nc(-c3cccc(OC)c3)cs2)cc1, the AC50 [1] was 2 µM [rising, partial curve] and the AC50 [2] was 8.91 µM [falling, partial curve, poor fit].
In the case of N#Cc1ccccc1OCC(=O)Nc1cccc(S(=O)(=O)N2CCCCCC2)c1, the AC50 [1] is reported as 4.61 µM [falling, partial curve, poor fit].
For CCOc1ccc(Cn2nnc(C(=O)Nc3ccc(OC)cc3OC)c2N)cc1, the AC50 [1] was 14.6 µM [rising, single point].
For Cc1ccc(C)c(NC(=O)CCC(=O)NNC(=O)C(c2ccccc2)c2ccccc2)c1, the AC50 [1] was 8.91 µM [rising, partial curve].
In the case of Cc1ccc(CSCC(=O)N2CCOCC2)cc1, the AC50 [1] is reported as 20.6 µM [falling, partial curve, poor fit].
With O=S(=O)(c1ccc(F)cc1)N1CCN(CC(O)COc2ccccc2F)CC1 (stereo not drawn) the AC50 [1] was 35.5 µM [falling, single point].
In the case of CC(=O)N(Cc1ccc(Br)cc1)c1ccccc1C(=O)O, the AC50 [1] is reported as 7.08 µM [rising, full curve, poor fit].
For COc1cccc(/C(O)=C2/C(=O)C(=O)N(c3cc(C)on3)C2c2cccs2)c1 (stereo not drawn), the AC50 [1] was 0.0891 µM [falling, full curve, poor fit].
For O=C(NCCc1ccccn1)c1cc2ccccc2o1, the AC50 [1] was 4.47 µM [falling, partial curve, poor fit].
For O=C(Nc1ccc2ccccc2c1)c1cccc(F)c1, the AC50 [1] was 10 µM [falling, partial curve].
In the case of CC1(C)C(=O)N(c2ccccc2)C1c1ccccc1O (stereo not drawn), the AC50 [1] is reported as 25.1 µM [rising, partial curve] and the AC50 [2] is reported as 25.1 µM [falling, single point].
With CCOc1ccc(CCNC(=O)C2CCCN(C(=O)N(C)C)C2)cc1OCC (stereo not drawn) the AC50 [1] was 14.6 µM [rising, partial curve, poor fit].
With CCN1C(=S)N[C@@H](c2ccccc2)C(C(=O)OC)=C1C the AC50 [1] was 14.1 µM [falling, single point].
With O=S(=O)(Nc1ccccn1)c1cc(Cl)ccc1Cl the AC50 [1] was 5.62 µM [rising, partial curve, poor fit].
With O=C(NC(=S)NCCc1ccccn1)c1ccccc1 the AC50 [1] was 12.6 µM [falling, partial curve, poor fit].
With COc1ccccc1N1CCN(C(=O)c2ccc3c(=O)n(Cc4ccco4)c(=S)[nH]c3c2)CC1 the AC50 [1] was 5.01 µM [falling, full curve].
For C(=N/N1CCN(c2ccccc2)CC1)/c1ccncc1, the AC50 [1] was 1.12 µM [rising, full curve].
For CCN(CC)S(=O)(=O)c1cccc(-c2nnc(SCc3nnc(-c4cccs4)o3)n2N)c1, the AC50 [1] was 35.5 µM [falling, single point].
In the case of CCOc1ccc(C2C3=C(CCCC3=O)Nc3ccc4ncccc4c32)cc1 (stereo not drawn), the AC50 [1] is reported as 0.355 µM [rising, full curve, poor fit].
With COc1ccc(Cl)cc1NC(=O)CSc1nnc2[nH]c(=O)cc(-c3ccccc3)n12 the AC50 [1] was 10 µM [falling, partial curve, poor fit].
With Cc1ccccc1/C=C/C1=NCCN1 the AC50 [1] was 25.9 µM [falling, single point].
In the case of COC(=O)c1ccc2c(=O)n3nc(Nc4cc(OC)ccc4OC)sc3nc2c1, the AC50 [1] is reported as 2.82 µM [falling, full curve].
With CCn1c(NCc2cc(Br)ccc2NS(=O)(=O)c2ccc(C)cc2)nc2ccccc21 the AC50 [1] was 2.51 µM [rising, partial curve, poor fit].
In the case of CCOc1ccccc1NC(=O)CN(Cc1ccccc1)S(C)(=O)=O, the AC50 [1] is reported as 3.66 µM [rising, partial curve, poor fit].
In the case of Cc1ccc(CNC(=O)c2cc3c(-c4ccc(Cl)cc4)nn(C)c3s2)o1, the AC50 [1] is reported as 7.31 µM [falling, partial curve, poor fit] and the AC50 [2] is reported as 9.2 µM [rising, partial curve, poor fit].
With C=CCN=C(NC#N)SCCc1ccccc1 the AC50 [1] was 0.1 µM [rising, full curve, poor fit].
With COc1cccc(C(=O)NNS(=O)(=O)c2ccc(F)cc2)c1 the AC50 [1] was 10 µM [falling, partial curve, poor fit].
With O=C(Cc1ccc(Br)cc1)Nc1cccc(Cl)c1 the AC50 [1] was 11.2 µM [rising, partial curve, poor fit].
With Nc1ncnc2c1ncn2CCc1ccccc1 the AC50 [1] was 15.8 µM [rising, single point].
With c1ccc(CCNc2nc(-c3ccccn3)cs2)cc1 the AC50 [1] was 7.94 µM [falling, partial curve] and the AC50 [2] was 35.5 µM [rising, partial curve, poor fit].
With Cc1ccc(NC(=O)/C(=C\c2ccccc2)NC(=O)c2ccco2)cc1 the AC50 [1] was 35.5 µM [rising, single point].
With C=CCc1ccccc1OCC(=O)N/N=C/c1ccc(OC(C)=O)cc1OC(C)=O the AC50 [1] was 7.31 µM [falling, partial curve].
With COc1ccc(/C=C2\NC(=S)N(CC3CCCO3)C2=O)c(OC)c1 (stereo not drawn) the AC50 [1] was 25.1 µM [rising, partial curve, poor fit].
In the case of C=CCn1c(SCC(=O)Nc2ccccc2OC)nnc1-c1ccco1, the AC50 [1] is reported as 2.06 µM [falling, single point].
For Fc1ccc2nc(N3CCCC3)sc2c1, the AC50 [1] was 3.16 µM [rising, full curve].
In the case of COC(=O)c1cc2sccc2n1CC(=O)Nc1cc(OC)cc(OC)c1, the AC50 [1] is reported as 7.08 µM [falling, partial curve].
In the case of Cc1ccc(S(=O)(=O)N2CCCC2C(=O)N2CCCCCC2)cc1 (stereo not drawn), the AC50 [1] is reported as 6.51 µM [falling, partial curve, poor fit].
In the case of Cc1cccc(-n2cnc3cc(C(=O)NCc4ccccc4Cl)ccc32)c1, the AC50 [1] is reported as 1.41 µM [rising, partial curve, poor fit].
With CCOC(=O)C1CCN(C(=O)Nc2ccc3nc(C)c(C)nc3c2)CC1 the AC50 [1] was 18.4 µM [falling, partial curve].
In the case of NC(=O)c1ccccc1NC(=O)c1ccccc1F, the AC50 [1] is reported as 0.82 µM [falling, single point].
In the case of CCOc1ccc2[nH]c(=O)c(CN(Cc3ccccc3OC)C(=O)c3ccccc3)cc2c1, the AC50 [1] is reported as 4.61 µM [falling, single point].
In the case of Oc1ccc(Cl)cc1/C=N/c1nccs1, the AC50 [1] is reported as 17.8 µM [falling, single point].
With Brc1ccc(-c2noc(-c3ccccn3)n2)o1 the AC50 [1] was 20 µM [falling, single point].
With O=[N+]([O-])c1ccc(/C=C/c2ccc3cccc(O)c3n2)cc1 the AC50 [1] was 14.1 µM [falling, single point].
For Cc1ccc(NC(=O)c2ccn(C(=O)Nc3ccccc3)n2)c(C)c1, the AC50 [1] was 11.2 µM [falling, partial curve, poor fit].
In the case of COC(=O)c1ccc(NC(=O)CO/N=C2\CCCc3nonc32)cc1, the AC50 [1] is reported as 3.98 µM [rising, single point].
For C=CC[C@@H](CC(=O)N(CCO)Cc1ccccc1)C(=O)N[C@H](COC(=O)[C@@H](CC=C)CC(=O)OC(C)(C)C)Cc1ccccc1, the AC50 [1] was 18.4 µM [falling, partial curve, poor fit].
With S=c1[nH]nc(C2CCCCC2)n1/N=C/c1ccc(Br)cc1 the AC50 [1] was 17.8 µM [rising, single point].
For CC(=O)C1=C(O)C(=O)N(c2ccc(C(=O)O)cc2)C1c1ccccc1 (stereo not drawn), the AC50 [1] was 0.82 µM [falling, full curve, poor fit].
For COc1cccc(OCC(O)CN2CCN(CCO)CC2)c1 (stereo not drawn), the AC50 [1] was 13 µM [rising, partial curve, poor fit].
For COc1cccc(C(C(=O)NCC2CCCO2)N(C(=O)Cn2nnc3ccccc32)c2ccc(NC(C)=O)cc2)c1 (stereo not drawn), the AC50 [1] was 35.5 µM [rising, single point].
In the case of CCC(C)(C)NCC(=O)Nc1ccc(OC(F)(F)F)cc1, the AC50 [1] is reported as 5.8 µM [rising, partial curve, poor fit].
In the case of Cc1ccc(Nc2ncnc3ccccc23)cc1, the AC50 [1] is reported as 1.12 µM [rising, full curve, poor fit].
In the case of Cc1nn(C)c(Oc2ccccc2)c1CCNC(=O)CCl, the AC50 [1] is reported as 17.8 µM [falling, partial curve, poor fit].
In the case of CS(=O)(=O)c1ccccc1-c1nc(-c2ccc(C(F)(F)F)cc2)no1, the AC50 [1] is reported as 0.708 µM [rising, full curve, poor fit].
With O=C(CSc1nnc2ccccn12)c1ccccc1 the AC50 [1] was 5.17 µM [falling, partial curve].
With COc1cccc2[nH]c(C(=O)NCCc3ccccc3)cc12 the AC50 [1] was 12.6 µM [falling, partial curve, poor fit].
In the case of COc1ccccc1/C=C/C1(C(=O)NC2CCCC2)CC(=O)N1c1ccccc1 (stereo not drawn), the AC50 [1] is reported as 7.08 µM [falling, partial curve, poor fit] and the AC50 [2] is reported as 6.31 µM [rising, partial curve, poor fit].
For Cc1csc(NC(=O)CSc2nnc(C)c(=O)n2N)n1, the AC50 [1] was 11.2 µM [falling, partial curve, poor fit].
In the case of COC(C[C@H]1O[C@H]1C(=O)COCc1ccccc1)OC, the AC50 [1] is reported as 35.5 µM [rising, single point].
In the case of Cc1cc(Nc2nc3ccccc3c3nnc(C)n23)ccc1Br, the AC50 [1] is reported as 1.12 µM [rising, full curve, poor fit].
For COc1ccc(-n2c(CN3CCOCC3)nc3ccc([N+](=O)[O-])cc3c2=O)c(OC)c1, the AC50 [1] was 15.8 µM [rising, single point].
In the case of Cc1[nH]nc(-c2ccc(O)cc2O)c1-c1ccc(Cl)cc1, the AC50 [1] is reported as 35.5 µM [falling, single point].

Source: PubChem BioAssay AID493014 (National Center for Advancing Translational Sciences (NCATS), 2011)
